# Experimental data: PubChem BioAssay AID720505 (Drosophila RNAi Screening Center, 2013)
# Purpose: 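Knock-downs that reduce calcium influx once internal stores are emptied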 (primary screen)
# System: Drosophila S2R+ cells
# Reagents: long dsRNA against Drosophila genes
# Challenge: thapsigargin (2 µM) in calcium-free buffer to empty internal stores, then 2 mM calcium added back
# Detection: 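Stores emptied by 2 µM thapsigargin without calcium, then 2 mM calcium re-added; fluo-4 fluorescence followed by FLIPR in 384-well plates, per-well averaged endpoint, raw; two screen passes, some wells retested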
# Direction: calcium signal and retest calcium signal: higher = more calcium entry after store depletion
# Call rule: 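Knock-downs counted as hits when calcium entry dropped relative to STIM1 positive and Rho1 negative controls present on each plate; roughly 1500 genes called, with reductions of differing size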
# Calls: active = called as lowering calcium entry; inactive = not called
# The deposit covers about 20,000 reagents; below is an unselected part of those that have a named target and a result. In the full data, about 2,100 (10%) are marked active. 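Raw plate signals without normalisation; calls rest on control-based scores that were not deposited; replicate 2 separates called from uncalled poorly.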 A number with no mark means an inactive call. Not stated in the record: the amount of reagent, the time to read-out.
target,amplicon,"calcium signal, replicate 1","calcium signal, replicate 2","retest calcium signal, replicate 1","retest calcium signal, replicate 2"
CG15916,DRSC19740,90.1,153,,
CG13203,DRSC06327,91.7,154,,
Vha16-3,DRSC10872,103,128,,
grn,DRSC16961,128,147,,
CG17994,DRSC04877,147,164,,
CG4942,DRSC10462,142,110,,
smal,DRSC02318,69.5,202,101,92.4
smal,DRSC02319,178,85.6,,
smal,DRSC02320,153,85.3,,
smal,DRSC02504,58.5 (active),171,,
smal,DRSC22866,69.5,67.8,,
CG6324,DRSC19985,91.8,123,,
iotaTry,DRSC07634,120,231,,
CG18088,DRSC02654,89.1,106,,
CG8405,DRSC05599,44.3 (active),96.5,,
CG8405,DRSC07166,129,102,,
CR40441,DRSC22916,97.8,193,,
Targ,DRSC06206,133,150,,
Obp56g,DRSC06432,182,165,,
CG8060,DRSC07064,73 (active),149,,
CG2126,DRSC15418,162,146,,
CG43315,DRSC06296,99.2,137,,
CG14109,DRSC10112,106,136,,
CG14017,DRSC02348,88.5,94.3,,
CG1307,DRSC12492,98.6,102,,
GstD2,DRSC16684,112,102,,
CG6650,DRSC10685,74,97.3,,
RNASEK,DRSC21641,80.9 (active),79,,
CG12880,DRSC14568,127,117,,
twz,DRSC04069,134,85.2,,
CG15695,DRSC15117,223,140,,
hpRNA:CR32205,DRSC09890,91.8,144,,
CG5262,DRSC11773,108,116,,
PH4alphaNE1,DRSC16546,122,148,,
CG15212,DRSC10212,109,87.1,,
glu,DRSC03539,92.6,116,,
Usp39,DRSC20032,149,117,,
CG34005,DRSC05700,47.4,80.4,,
l(2)k09022,DRSC02108,87.5,106,,
CG14384,DRSC14842,99.4,72.3,,
CG34398,DRSC01052,68.4 (active),106,113,110
CG34398,DRSC02510,64 (active),76.9,,
CG34398,DRSC02511,48.8 (active),89.8,,
CG34398,DRSC03228,80.3 (active),104,,
CG34398,DRSC23293,123,146,,
Fam92,DRSC02952,99.1,94.5,,
Datp,DRSC01102,192,151,,
CG12096,DRSC21692,218,73.5,,
bowl,DRSC00805,128,192,,
CG9628,DRSC11082,95,117,,
CG12883,DRSC14570,75.7,106,,
Oseg1,DRSC10776,74.4 (active),89.2,,
CG18249,DRSC15318,119,94.5,,
gammaSnap1,DRSC04686,174,92.4,,
Qsox1,DRSC06878,63.2,112,130,100
se,DRSC10713,70.9,64.4,,
s-cup,DRSC06277,139,227,,
s-cup,DRSC06278,128,199,,
Pvf2,DRSC00968,120,130,,
Pvf2,DRSC02283,140,91.8,,
CG42458,DRSC10335,81.5,103,,
CG42458,DRSC23129,87.8,121,,
CG42458,DRSC23261,136,111,,
CG15012,DRSC08465,107,90.9,,
MED20,DRSC03463,130,115,,
Polr1C,DRSC02719,70.3,124,,
nab,DRSC08455,99.5,98.4,,
nab,DRSC08456,85.8,84.3,,
CG12702,DRSC19487,111,126,,
Ncc69,DRSC10412,102,127,,
Ncc69,DRSC10413,85.1,55.8,,
CG2767,DRSC15451,97.2,144,,
Nup58,DRSC16235,172,186,,
CG9676,DRSC20204,92.5,115,,
oaf,DRSC00831,194,137,,
CG2861,DRSC18229,218,104,,
CG42383,DRSC21733,102,108,,
CG11693,DRSC14353,90.8,151,,
rho-7,DRSC07304,106,123,,
Mnr,DRSC20549,207,88.2,,
Mnr,DRSC20550,73.8 (active),63.6,230,9350
Mnr,DRSC22441,114,216,,
slp2,DRSC00836,185,76.2,,

Part of the list above in another layout:
se [DRSC10713]
- calcium signal, replicate 1: 70.9
- calcium signal, replicate 2: 64.4

s-cup [DRSC06277]
- calcium signal, replicate 1: 139
- calcium signal, replicate 2: 227

s-cup [DRSC06278]
- calcium signal, replicate 1: 128
- calcium signal, replicate 2: 199

Pvf2 [DRSC00968]
- calcium signal, replicate 1: 120
- calcium signal, replicate 2: 130
